# Measurements taken from the supplement of paper PMC10849652.
# Chains of the proteins cited; added tags and fusions are not shown. Lines headed by an entry give the natural chain unless they say otherwise; changes in a name come on top.
# UniProt Q9NW64: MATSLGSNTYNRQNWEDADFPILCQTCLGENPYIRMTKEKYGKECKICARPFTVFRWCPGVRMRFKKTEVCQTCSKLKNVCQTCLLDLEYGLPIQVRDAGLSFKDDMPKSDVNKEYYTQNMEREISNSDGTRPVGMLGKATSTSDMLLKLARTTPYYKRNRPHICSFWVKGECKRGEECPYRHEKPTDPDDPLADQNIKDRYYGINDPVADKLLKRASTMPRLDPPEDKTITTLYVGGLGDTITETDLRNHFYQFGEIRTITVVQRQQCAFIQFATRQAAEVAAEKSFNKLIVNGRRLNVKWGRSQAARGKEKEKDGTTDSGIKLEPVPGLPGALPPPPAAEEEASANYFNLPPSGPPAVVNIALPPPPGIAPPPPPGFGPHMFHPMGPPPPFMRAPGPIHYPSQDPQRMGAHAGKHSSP
# UniProt O75771: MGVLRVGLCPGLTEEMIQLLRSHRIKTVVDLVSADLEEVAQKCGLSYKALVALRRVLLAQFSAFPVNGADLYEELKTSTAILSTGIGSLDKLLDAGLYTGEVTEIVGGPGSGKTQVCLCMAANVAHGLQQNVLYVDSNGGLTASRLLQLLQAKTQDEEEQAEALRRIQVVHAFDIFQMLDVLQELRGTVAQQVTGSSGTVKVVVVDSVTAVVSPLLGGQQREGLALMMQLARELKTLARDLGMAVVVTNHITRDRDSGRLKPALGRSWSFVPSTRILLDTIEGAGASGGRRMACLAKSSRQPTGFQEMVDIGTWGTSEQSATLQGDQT
# UniProt Q96S21: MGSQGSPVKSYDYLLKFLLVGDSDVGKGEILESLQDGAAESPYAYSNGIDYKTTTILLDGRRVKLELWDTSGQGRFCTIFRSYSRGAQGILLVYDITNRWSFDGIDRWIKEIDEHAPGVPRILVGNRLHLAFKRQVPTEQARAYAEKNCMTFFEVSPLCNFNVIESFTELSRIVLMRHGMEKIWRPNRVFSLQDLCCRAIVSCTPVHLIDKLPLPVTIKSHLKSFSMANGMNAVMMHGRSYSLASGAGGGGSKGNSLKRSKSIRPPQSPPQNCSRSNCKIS
# UniProt Q92696: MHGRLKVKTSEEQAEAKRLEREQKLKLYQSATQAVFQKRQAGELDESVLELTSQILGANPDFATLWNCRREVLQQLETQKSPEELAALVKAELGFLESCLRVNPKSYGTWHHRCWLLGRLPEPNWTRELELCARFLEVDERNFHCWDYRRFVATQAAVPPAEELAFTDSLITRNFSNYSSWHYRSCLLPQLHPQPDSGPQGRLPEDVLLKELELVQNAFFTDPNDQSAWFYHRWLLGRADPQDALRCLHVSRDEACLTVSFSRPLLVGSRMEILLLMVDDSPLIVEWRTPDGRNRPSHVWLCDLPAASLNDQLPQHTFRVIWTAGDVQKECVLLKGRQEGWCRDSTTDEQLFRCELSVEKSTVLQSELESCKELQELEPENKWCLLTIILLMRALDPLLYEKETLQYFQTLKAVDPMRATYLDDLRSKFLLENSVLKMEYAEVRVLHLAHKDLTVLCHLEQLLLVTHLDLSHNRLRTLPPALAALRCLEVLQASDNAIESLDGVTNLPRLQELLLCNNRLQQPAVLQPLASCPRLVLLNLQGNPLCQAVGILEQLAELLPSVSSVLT
# UniProt P54136: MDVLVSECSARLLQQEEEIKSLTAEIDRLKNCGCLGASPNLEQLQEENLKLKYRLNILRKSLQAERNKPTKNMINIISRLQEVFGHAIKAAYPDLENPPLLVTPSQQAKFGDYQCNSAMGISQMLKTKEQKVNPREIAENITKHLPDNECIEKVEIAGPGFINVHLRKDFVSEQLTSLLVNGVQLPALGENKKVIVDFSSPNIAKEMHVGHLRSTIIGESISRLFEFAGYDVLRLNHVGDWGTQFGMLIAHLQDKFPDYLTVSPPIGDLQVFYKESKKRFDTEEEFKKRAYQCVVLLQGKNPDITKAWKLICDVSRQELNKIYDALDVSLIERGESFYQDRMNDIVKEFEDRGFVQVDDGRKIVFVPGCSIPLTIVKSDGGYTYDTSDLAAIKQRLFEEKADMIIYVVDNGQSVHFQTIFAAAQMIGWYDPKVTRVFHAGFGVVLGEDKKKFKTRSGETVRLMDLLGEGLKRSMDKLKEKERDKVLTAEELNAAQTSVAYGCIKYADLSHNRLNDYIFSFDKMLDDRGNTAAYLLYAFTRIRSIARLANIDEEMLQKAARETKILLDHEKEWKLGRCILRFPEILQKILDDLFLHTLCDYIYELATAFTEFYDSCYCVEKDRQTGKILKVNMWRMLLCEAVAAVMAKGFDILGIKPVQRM
# UniProt Q8WZA2: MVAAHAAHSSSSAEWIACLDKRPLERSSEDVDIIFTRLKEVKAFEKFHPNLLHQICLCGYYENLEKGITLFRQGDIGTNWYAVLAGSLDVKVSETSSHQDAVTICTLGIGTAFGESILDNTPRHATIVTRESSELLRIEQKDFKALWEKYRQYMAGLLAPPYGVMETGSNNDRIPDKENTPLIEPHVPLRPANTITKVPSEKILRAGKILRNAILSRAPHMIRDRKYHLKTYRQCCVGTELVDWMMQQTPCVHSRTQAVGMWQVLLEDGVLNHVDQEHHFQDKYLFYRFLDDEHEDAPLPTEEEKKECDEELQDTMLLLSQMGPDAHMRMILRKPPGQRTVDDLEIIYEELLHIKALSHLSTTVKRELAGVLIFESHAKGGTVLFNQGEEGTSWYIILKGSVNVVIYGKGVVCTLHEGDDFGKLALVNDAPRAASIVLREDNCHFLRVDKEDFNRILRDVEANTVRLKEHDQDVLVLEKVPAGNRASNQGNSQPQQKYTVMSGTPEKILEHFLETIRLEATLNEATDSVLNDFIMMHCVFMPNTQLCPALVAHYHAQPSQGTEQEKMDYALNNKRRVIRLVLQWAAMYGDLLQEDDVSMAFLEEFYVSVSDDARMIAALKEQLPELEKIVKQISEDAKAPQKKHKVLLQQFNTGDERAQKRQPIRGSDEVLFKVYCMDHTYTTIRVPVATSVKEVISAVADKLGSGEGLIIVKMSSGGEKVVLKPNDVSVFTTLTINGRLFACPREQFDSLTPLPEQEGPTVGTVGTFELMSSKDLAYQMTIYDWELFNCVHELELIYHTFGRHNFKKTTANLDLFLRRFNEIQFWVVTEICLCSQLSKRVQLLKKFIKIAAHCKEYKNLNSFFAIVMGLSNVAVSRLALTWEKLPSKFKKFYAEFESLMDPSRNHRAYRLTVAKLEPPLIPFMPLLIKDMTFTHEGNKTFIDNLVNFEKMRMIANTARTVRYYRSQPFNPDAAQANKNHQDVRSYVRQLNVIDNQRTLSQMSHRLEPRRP
# UniProt Q6WKZ4: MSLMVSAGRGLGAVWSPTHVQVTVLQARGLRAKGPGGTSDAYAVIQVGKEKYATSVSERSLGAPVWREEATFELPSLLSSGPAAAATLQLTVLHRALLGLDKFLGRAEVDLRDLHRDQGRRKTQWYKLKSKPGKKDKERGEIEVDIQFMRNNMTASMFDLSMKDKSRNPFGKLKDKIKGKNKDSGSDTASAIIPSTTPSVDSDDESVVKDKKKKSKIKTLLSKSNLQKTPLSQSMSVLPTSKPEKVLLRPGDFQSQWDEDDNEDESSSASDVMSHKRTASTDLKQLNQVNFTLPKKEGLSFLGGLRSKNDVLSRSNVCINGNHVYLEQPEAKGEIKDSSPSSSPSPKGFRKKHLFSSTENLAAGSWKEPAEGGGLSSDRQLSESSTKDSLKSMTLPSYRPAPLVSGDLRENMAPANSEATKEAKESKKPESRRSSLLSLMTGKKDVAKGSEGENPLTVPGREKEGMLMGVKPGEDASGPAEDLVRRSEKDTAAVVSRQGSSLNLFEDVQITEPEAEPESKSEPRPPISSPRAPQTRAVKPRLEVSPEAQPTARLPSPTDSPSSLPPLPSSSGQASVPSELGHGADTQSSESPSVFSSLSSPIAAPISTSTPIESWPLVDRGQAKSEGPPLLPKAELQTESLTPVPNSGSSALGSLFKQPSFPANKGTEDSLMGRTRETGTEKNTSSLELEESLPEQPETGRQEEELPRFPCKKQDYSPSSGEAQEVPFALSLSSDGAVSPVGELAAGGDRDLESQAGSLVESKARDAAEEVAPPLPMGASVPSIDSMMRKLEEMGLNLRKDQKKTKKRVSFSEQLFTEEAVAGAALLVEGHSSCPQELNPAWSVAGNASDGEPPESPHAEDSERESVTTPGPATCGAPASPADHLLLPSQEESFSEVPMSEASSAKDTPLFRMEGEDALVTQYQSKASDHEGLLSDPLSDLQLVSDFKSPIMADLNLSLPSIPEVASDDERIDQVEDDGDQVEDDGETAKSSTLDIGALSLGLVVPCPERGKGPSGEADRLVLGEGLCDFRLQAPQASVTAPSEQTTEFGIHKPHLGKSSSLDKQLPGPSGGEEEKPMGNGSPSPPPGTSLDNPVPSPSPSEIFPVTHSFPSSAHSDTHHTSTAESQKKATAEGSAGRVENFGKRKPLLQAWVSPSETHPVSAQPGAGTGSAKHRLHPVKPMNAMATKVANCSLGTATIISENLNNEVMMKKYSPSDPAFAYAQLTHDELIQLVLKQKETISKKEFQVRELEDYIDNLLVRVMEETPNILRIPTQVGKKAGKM
# UniProt Q9BUV8: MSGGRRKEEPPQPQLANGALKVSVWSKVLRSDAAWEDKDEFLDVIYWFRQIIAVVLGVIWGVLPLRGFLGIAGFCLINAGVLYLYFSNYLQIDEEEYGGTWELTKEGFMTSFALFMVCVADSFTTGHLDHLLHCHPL
# UniProt Q9H082: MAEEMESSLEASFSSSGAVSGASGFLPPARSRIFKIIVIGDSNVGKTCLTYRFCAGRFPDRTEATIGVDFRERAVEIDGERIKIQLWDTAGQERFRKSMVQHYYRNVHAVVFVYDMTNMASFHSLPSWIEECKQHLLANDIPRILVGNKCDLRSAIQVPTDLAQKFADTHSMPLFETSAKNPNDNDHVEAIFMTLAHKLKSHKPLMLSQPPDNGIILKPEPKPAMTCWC
# UniProt P52306: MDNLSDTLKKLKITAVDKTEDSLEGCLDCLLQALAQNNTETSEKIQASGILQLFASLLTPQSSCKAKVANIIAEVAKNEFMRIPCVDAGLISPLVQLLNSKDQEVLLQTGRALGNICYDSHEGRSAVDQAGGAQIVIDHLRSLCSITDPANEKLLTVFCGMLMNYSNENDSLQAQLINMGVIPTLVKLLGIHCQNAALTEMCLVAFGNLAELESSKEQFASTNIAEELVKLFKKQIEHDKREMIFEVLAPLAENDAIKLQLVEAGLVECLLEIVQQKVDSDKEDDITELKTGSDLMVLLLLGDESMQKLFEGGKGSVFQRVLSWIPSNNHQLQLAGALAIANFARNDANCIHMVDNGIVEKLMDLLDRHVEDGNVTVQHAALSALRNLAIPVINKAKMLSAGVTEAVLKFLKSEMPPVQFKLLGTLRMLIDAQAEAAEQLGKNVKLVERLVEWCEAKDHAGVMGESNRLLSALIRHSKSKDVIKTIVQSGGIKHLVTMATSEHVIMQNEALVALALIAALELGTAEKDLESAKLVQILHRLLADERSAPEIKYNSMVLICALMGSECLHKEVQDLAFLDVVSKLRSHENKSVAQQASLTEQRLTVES
# UniProt Q8N0T1: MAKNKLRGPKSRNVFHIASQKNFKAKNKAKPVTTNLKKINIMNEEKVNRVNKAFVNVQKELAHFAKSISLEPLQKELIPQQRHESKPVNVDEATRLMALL
# The other results are listed elsewhere or left out.
# Compound: CN1CCN(CCOc2cc(OC3CCOCC3)c3c(Nc4c(Cl)ccc5c4OCO5)ncnc3c2)CC1 [saracatinib]
# Test: log2 fold change, soluble protein after heating vs DMSO (PISA); higher = thermal stabilisation; K562 cells, 10 uM, 30 min; active = over 0.2 and 3.5 SD of the protein, either way, in both replicates (recomputed)
# Procedure, shortened: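 Thermal stability values are relative to control samples and come from duplicates. They are expressed as log2 fold changes. For measurement, K562 cells (2×10^6 cells/mL) received 10 μM compound for 30 min, and aliquots were heated for 3 min over 48°C-58°C, pooled, and extracted at 4°C in PBS with 0.5% NP-40. Soluble protein, the supernatant after 21,000xg for 90 min, was quantified by TMTpro 16plex LC-MS/MS with equalised channel sums.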
row,Target,log2 fold change
1,RBM22 (UniProt Q9NW64),inactive: 0.016
2,RBM12 (UniProt Q9NTZ6),inactive: -0.04
3,RBM27 (UniProt Q9P2N5),inactive: 0.04
4,RAF1 isoform 2 (UniProt P04049),inactive: -0.029
5,"RAD50, A0A494C0Y7",inactive: -0.101
6,RAD51D (UniProt O75771),inactive: 0.043
7,RABGAP1L isoform 3 (UniProt Q5R372),inactive: 0.063
8,RAB40C (UniProt Q96S21),inactive: 0.228
9,RABGGTA (UniProt Q92696),inactive: 0.013
10,RARS (UniProt P54136),inactive: -0.103
11,RANBP2 (UniProt P49792),inactive: -0.011
12,RAPGEF4 (UniProt Q8WZA2),inactive: 0.045
13,RAD50 isoform 2 (UniProt Q92878),inactive: 0.012
14,RAB11FIP1 (UniProt Q6WKZ4),inactive: 0.021
15,RAB5IF isoform 5 (UniProt Q9BUV8),inactive: 0.114
16,RAC3 (UniProt P60763),inactive: 0.036
17,RBM17 (UniProt Q96I25),inactive: 0.005
18,RANBP6 (UniProt O60518),inactive: -0.061
19,RAB33B (UniProt Q9H082),inactive: 0.158
20,RAP1GDS1 isoform 5 (UniProt P52306),inactive: 0.004
21,RBIS (UniProt Q8N0T1),inactive: 0.054
22,RBM26 isoform 2 (UniProt Q5T8P6),inactive: -0.01

# Exported bar-delimited: entries from further up.
row | Target | log2 fold change
5 | RAD50, A0A494C0Y7 | inactive: -0.101
10 | RARS (UniProt P54136) | inactive: -0.103
15 | RAB5IF isoform 5 (UniProt Q9BUV8) | inactive: 0.114
16 | RAC3 (UniProt P60763) | inactive: 0.036
17 | RBM17 (UniProt Q96I25) | inactive: 0.005
